Where two headings read alike, the source gives them in different places. These are yes or no findings as the source states them, for the method shown. In cells and extracts the contact can be indirect. A yes stands for co-enrichment or nearness to the bait. Other partners may have been found. For part of these data: Tags and fused reporters may be left off the sequences shown.
T1: Halo-SPEN-V5 RRM1-4 (mouse) (UniProt Q62504)
T1 sequence: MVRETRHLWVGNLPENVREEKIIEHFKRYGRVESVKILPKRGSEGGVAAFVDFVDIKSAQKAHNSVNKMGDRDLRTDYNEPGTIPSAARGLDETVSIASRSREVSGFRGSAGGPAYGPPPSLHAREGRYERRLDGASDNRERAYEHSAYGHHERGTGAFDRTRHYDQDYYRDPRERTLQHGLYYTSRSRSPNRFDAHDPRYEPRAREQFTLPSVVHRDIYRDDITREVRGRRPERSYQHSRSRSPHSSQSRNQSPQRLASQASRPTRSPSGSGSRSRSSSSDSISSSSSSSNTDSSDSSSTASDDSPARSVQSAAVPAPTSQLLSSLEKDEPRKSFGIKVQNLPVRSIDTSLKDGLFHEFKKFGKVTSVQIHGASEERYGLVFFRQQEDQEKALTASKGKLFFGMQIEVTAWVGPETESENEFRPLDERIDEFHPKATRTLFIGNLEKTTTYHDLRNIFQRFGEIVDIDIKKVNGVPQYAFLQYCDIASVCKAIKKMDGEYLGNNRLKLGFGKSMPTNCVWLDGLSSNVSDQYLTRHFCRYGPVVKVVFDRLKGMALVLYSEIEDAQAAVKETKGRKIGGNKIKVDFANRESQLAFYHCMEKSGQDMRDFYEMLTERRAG

Amino acid sequences for entries named in this document (tags omitted).
UniProt Q6PDM2: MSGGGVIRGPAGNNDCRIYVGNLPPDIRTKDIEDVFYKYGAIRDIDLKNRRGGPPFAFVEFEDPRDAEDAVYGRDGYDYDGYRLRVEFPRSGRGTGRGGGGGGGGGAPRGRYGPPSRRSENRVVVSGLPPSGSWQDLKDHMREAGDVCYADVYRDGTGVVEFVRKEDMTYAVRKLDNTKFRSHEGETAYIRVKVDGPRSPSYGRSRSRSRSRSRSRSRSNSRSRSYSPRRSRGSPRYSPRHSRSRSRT
UniProt Q62093: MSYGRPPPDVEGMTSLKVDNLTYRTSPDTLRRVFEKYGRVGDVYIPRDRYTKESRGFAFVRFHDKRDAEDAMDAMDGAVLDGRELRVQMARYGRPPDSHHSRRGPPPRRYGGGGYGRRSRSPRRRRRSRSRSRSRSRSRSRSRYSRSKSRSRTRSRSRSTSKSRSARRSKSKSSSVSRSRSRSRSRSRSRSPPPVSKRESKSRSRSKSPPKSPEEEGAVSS
UniProt P26369: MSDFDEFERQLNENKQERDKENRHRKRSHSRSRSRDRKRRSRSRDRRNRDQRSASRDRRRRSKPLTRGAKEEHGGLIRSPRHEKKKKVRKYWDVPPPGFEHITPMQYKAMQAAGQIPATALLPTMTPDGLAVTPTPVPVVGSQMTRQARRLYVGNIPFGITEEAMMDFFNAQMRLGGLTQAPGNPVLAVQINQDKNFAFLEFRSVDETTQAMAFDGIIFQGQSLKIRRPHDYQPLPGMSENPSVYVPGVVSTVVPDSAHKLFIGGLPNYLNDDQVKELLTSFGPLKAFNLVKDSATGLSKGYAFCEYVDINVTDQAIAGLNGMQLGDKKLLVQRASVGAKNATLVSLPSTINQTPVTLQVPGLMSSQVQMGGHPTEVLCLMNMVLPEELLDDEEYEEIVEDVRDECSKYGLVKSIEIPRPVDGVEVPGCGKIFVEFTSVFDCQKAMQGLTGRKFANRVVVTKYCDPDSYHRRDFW


Experiments:
Assay in all cases: affinity purification with mass spectrometry
[1] = biological target: T1, Halo-SPEN-V5 RRM1-4 (mouse)
[2] = biological target: Halo-SPEN-V5 (mouse) (UniProt Q62504)
[3] = biological target: T1, Halo-SPEN-V5 RRM1-4 (mouse); remark: listed apart in the source

Molecule | binding [1] | binding [2] | binding [3]
SRSF1 (from UniProt Q6PDM2 1-248) | binds | binds | –
RBM15 (protein, UniProt Q0VBL3 1-962) MRSAGREPLPRRSPRWRRASPLCETSAGWRVSQLRRDDLRRPSTMKGKERSPVKPKRSRGGEDSSSRGERSKKLGGSGGSNGSSSGKTDSGGSRRSLHLDKSSSRGGSREYETGGGSSSSRLHSYSSPSTKNSSGGGESRSSSRGGGGESRSSGAASSAPGGGDGVEYKTLKISELGSQLSDEAVEDGLFHEFKRFGDVSVKISHLSGSGSGDERVAFVNFRRPEDARAAKHARGRLVLYDRPLKIEAVYVSRRRSRSPLDKDAYAPSSSVVGTSVGSHRHAPGGGGGQRSLSPGGAALGYRDYRLQQLALGRLPPPPPPPLPRELERERDYPFYDRVRPAYSLEPRVGAGAGAAPFREVDEISPEDDQRANRTLFLGNLDITVTENDLRRAFDRFGVITEVDIKRPSRGQTSTYGFLKFENLDMSHRAKLAMSGKIIIRNPIKIGYGKATPTTRLWVGGLGPWVPLAALAREFDRFGTIRTIDYRKGDSWAYIQYESLDAAHAAWTHMRGFPLGGPDRRLRVDFADTEHRYQQQYLQPLPLTHYELVTDTFGHRAPDPLRSARDRTPPLLYRDRDRDLYTDSDWVPPPPPVRERSARAATSAVTAYEPLDSLDRRRDGWSLDRDRGDRDLPSSRDQPRKRRLPEESGGRHLDRSPESERPRKQRHCTPSPDRSPELSSNRDRYNSDNDRSSRLLLLERSSPVRDRRGSLEKSQSDKRDRKNSASAERDRKHRTAAPTEGKNPLKKEDRSDGNAPSASTSSSKQKPPSQKQDGGTAPVAASSPKLCLAWQGMLLLKNSNFPSNMHLLQGDLQVASSLLVEGSTGGKVAQLKITQRLRLDQPKLDEVTRRIKVAGPNGYAILLAVPGSSDSRSSSSSATSDTAASTQRPLRNLVSYLKQKQAAGVISLPVGGNKDKENTGVLHAFPPCEFSQQFLDSPAKALAKSEEDYLVMIIVRAKLVNSG | – | – | binds

The next lines start with the values.

binding [1] | binding [2] | binding [3] | Molecule
binds | – | – | SRSF2 (from UniProt Q62093 1-221)
binds | – | – | U2AF2 (from UniProt P26369 1-475)
– | – | binds | U2AF1 (protein, UniProt Q9D883 1-239) MAEYLASIFGTEKDKVNCSFYFKIGACRHGDRCSRLHNKPTFSQTIALLNIYRNPQNSSQSADGLRCAVSDVEMQEHYDEFFEEVFTEMEEKYGEVEEMNVCDNLGDHLVGNVYVKFRREEDAEKAVIDLNNRWFNGQPIHAELSPVTDFREACCRQYEMGECTRGGFCNFMHLKPISRELRRELYGRRRKKHRSRSRSRERRSRSRDRGRGGGGGGGGGGGRERDRRRSRDRERSGRF

Reference: publication doi:10.1101/2025.05.21.655143
